Protein sequences can lack the tags named with them. The exact form of at least one protein or probe is not confirmed.

The data set addresses T1, TP901-1 integrase (Lactococcus phage TP901-1) (UniProt Q38184).
T1 sequence (looked up, limits assumed): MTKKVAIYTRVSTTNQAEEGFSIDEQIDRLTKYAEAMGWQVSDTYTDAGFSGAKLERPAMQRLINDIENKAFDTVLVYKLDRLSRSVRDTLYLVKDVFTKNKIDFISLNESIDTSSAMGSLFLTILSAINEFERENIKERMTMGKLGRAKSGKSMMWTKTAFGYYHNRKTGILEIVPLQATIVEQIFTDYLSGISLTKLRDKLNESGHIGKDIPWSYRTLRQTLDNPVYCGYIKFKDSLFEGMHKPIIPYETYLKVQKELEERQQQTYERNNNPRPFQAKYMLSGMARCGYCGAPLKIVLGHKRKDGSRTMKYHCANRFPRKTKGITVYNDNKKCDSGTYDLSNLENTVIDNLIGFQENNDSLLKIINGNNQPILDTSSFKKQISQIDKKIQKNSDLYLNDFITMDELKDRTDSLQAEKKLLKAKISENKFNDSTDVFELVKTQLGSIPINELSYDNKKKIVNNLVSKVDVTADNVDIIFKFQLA
In words: activity in cells. The settings on record: protein in cells.

Turning to “GTGCCTGACTTTCAACTACTTTAACTACTGCTGCTTCACCAGTTTTTTGAACTTGTGCTTTTTCTTTTATCAAATTTGGCACAAAAAGCAAAATTAAAATACTGATAATTGCCAACACAATTAACATCTCAATCAAGGTAAATGCTTTTTGCTTTTTTTGC (double strand) [attB161]”, the “activity on this sequence” value (B. subtilis AEB165, recombination with attP plasmid pAEB153, 33 C, no xylose, PCR check) is “active”. As for “ATCGATTGTTGTTTCATGATTCTCCTCCCCCAATGAGCTCCATAATACATAATTTTCAAACTGATAAAATGATTTTTCATAAATCCATTAGACGGTGCAAATATATGTTTTTAATGTTCTTCGTTTTTAGGCATCCCTCCTTTCAAGATAAATAATTTATACACTATTCTATTGGAATCTTAATCATTCCAATAGAAAAATATGTAATGATTATAAATAAGTCGCTTCTTATCATAAATATATTTACATATTCATTTAATACTACATCATGTTAGGTATAGTAAGGCTATCAAGGGTGTCTTAATTTCTACTTGTAACAATGTATTGGCATATTATATATTGAATTGAGAAAATTAAATACAGCGATAATTCACATGAACAAGTTCATTGGTAGTTATATTTTCAAATTTTCAAGGTTGTGCTTGTATGTCATTCTATAGTTAGATAAGCATTTGAGGTAGAGTCCGTCCGAATATATTTGTAATCTGAAGAAGGTTCAAACATATTTCTATATAACGTATTCTTTTTTTGTAGTTCTTACTTTTGAGGGGCGTTACAATTCAAAGATATTATCTTTAATTACCTTAATTGAAATAAACGAAATAAAAACTCGCAATTAAGCGAGTTGGACTCGAG (double strand)”, the “activity on this sequence” value (attP point change did not interfere with recombination with attB, B. subtilis) is on record as “active”. As for “CTGATAATTGCCAACACAATTAACATCTCAATCAAGGTAAATG (double strand) [attBmin]”, for the setting “B. subtilis AEB165, recombination with attP plasmid pAEB153, 33 C, no xylose, PCR check, text assigns integration in amyE to A, C, D, variant of attB161, only the site is given”, the “activity on this sequence” value was “active”.

These data come from patent US20080085535.
